# Reference: PubChem BioAssay AID1625 (Sanford-Burnham Center for Chemical Genomics, 2009)
# Where “and” joins values, the source holds several entries; their conditions need not be identical. Equal values may be shown once. In all, about 190,000 compounds went through this assay and about 570 (0.3%) were called active. The shares of active, inactive and inconclusive entries below differ from those in the screen.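 The calls were made as follows: active = z-score above 3 at 5 µM with at least 500 cells counted in the well; inconclusive = wells under 500 cells, flagged as cytotoxic or low count; inactive = the rest.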
# Experiment: up-regulation of insulin promoter-GFP reporter – imaging, high-content screening, mouse beta cells (AID 1625)
# Conditions: MIN6 insulin promoter-GFP reporter, at 5 µM, stronger effect = higher value
row,SMILES,z-score
1,Cc1ccc(S(=O)(=O)CCC(=O)Nc2cccc([N+](=O)[O-])c2)cc1,inactive: -0.28
2,C(#Cc1ccccc1)C[N+]1(CC#Cc2cccc3ccccc23)CCCC1,inconclusive: -1.08
3,O=C(COc1ccc2c(c1)CCC2)N1CCN(c2cccc(C(F)(F)F)c2)CC1,inactive: -0.07
4,CCCCCCOC(=O)C[N+](C)(C)CCOC1CC2CCC1(C)C2(C)C (centres undefined),inconclusive: -0.21
5,COc1cc(CNCc2ccccn2)ccc1OCc1c(Cl)cccc1Cl,inconclusive: -2.12
6,CSc1nc2ccccc2n1Cc1cccc([N+](=O)[O-])c1,inconclusive: -1.38
7,COC(CNC(=O)c1ccc(Cn2c(=S)[nH]c3cc4c(cc3c2=O)OCO4)cc1)OC,active: 3.48
8,CCCCCc1ccc(OCCCC[n+]2ccc(C)cc2)c(CCCCC)c1,inconclusive: -2.1
9,Cc1cc(C)n2nc(SCC(=O)c3cc(C)n(-c4cc(C)on4)c3C)nc2n1,inconclusive: -1.6
10,C/C(=N\NC(=O)c1ccco1)c1ccc(NC(=O)c2ccccc2)cc1,inconclusive: -1.79
11,CCc1ccccc1NC(=O)CN(C)C(=O)Cn1ncc(Cl)c(Cl)c1=O,inconclusive: -1.65
12,CCC(C)(C(=O)NC1CCCC1)N(C(=O)CNC(C)=O)c1ccccc1 (centres undefined),active: 3.46
13,c1ccc(-c2csc3ncnc(NCCCN4CCOCC4)c23)cc1,inconclusive: -1.59
14,CCOC(=O)c1cnc(-n2nc(C)cc2C)nc1NC1CCCCC1,inconclusive: -2.04
15,CCCCCc1cc(=O)oc2c(C(CCN3CCCC(C)C3)c3ccc4c(c3)OCO4)c(OC)cc(OC)c12 (centres undefined),inconclusive: -0.89
16,CN(C)C(=O)C1C2NC(=S)N(c3cccc(Cl)c3)C1(C)Oc1ccc(Cl)cc12 (centres undefined),active: 3.51
17,O=C(Nc1ccc([N+](=O)[O-])cc1)Nc1ccc(OC(F)F)c(Cl)c1,inconclusive: -3.03
18,O=C(/C(=C/c1ccc(Cl)cc1)c1nc2ccccc2[nH]1)c1cccs1,inconclusive: -1.92
19,N=c1c2c(n(Cc3ccc(Cl)c(Cl)c3)c3c1CCC3)CCCC2,inconclusive: -1.14
20,CCOC(=O)c1c(CSC(=N)N)n(-c2ccc(Br)cc2)c2cc(Br)c(OC(C)=O)cc12,inconclusive: -4.04
21,C[n+]1c2n(c3ccccc31)N=C(c1cc(C(C)(C)C)c(O)c(C(C)(C)C)c1)CS2,inconclusive: -8.29
22,C=CCNC(=O)/C(=C\c1ccc(Br)cc1)NC(=O)c1ccccc1OC,active: 3.42
23,C=CCn1c(C)cc(C(=O)Cn2ncc(Cl)c(Cl)c2=O)c1C,inconclusive: -3.39

row,SMILES,z-score
1,CCOC(=O)c1ccc(NC(=O)Cn2cnc3cc(C)c(C)cc32)cc1,inconclusive: -3.27
2,COc1cccc(C(=O)Nc2ccccc2C(=O)N2CCCC2)c1,active: 3.3
3,O=C(c1cc2ccccc2oc1=O)N(c1ccc(Cl)cc1)C1C=CS(=O)(=O)C1 (centres undefined),inconclusive: -6.73
4,O=C(N/N=C/c1ccco1)c1cc(C2CC2)nc2ccccc12,inconclusive: -0.74
5,Cc1ccc(S(=O)(=O)C(C#N)c2nc3ccccc3nc2N2CCC(C)CC2)cc1 (centres undefined),active: 3.75
6,N=C1N(/N=C/c2ccccc2)C(=Nc2ccccc2)C(=S)N1c1ccccc1,inconclusive: -1.69
7,CC(C)NS(=O)(=O)c1ccc(CCC(=O)NCc2cccnc2)cc1,inactive: 0.51
8,Cc1ccc(S(=O)(=O)Cc2ccc(C(=O)N3CCc4ccccc4C3)o2)cc1,inconclusive: -0.68
9,COc1ccc(-c2c[n+]3c(n2-c2ccc(C)cc2)CCCCC3)cc1,inconclusive: -1.94
10,c1ccc(C2=Nc3cccnc3C(c3ccccc3)=NN2)cc1,inactive: -0.06
11,CCCN(CCC)S(=O)(=O)c1ccc(C(=O)OCCN2C(=O)c3cccc4c(N5CCOCC5)ccc(c34)C2=O)cc1,active: 6.18
12,CCOC(=O)Cc1csc(NC(=O)c2c(O)c3c(n(CC(C)C)c2=O)CCCC3)n1,inactive: -0.15
13,COc1ccccc1-n1c(=O)[nH]c2c(C(N)=O)nc(-c3cccnc3)nc21,inconclusive: -0.81
14,CCc1ccc(C2C(C#N)=C(N)C(C#N)(C#N)C3=CCC(C(C)(C)C)CC32)cc1 (centres undefined),inconclusive: -0.91
15,COc1ccc(NC(=O)CSc2nnc(-c3cccs3)n2C)cc1OC,active: 3.55
16,CC(=O)c1cc(F)c(N2CCCCCC2)cc1C,inconclusive: -1.61
17,CCOC(=O)c1sc2nc(C)c3c(c2c1N)CC(C)(C)OC3,inconclusive: -0.27
18,CCOc1ccc(OCc2ccc(C(=O)N/N=C(\C)c3ccccn3)cc2)cc1,inconclusive: -7.2
19,CCC1Sc2ccccc2N(CC(=O)NC2CCCCC2)C1=O (centres undefined),inactive: -0.64
20,CN(C(=O)CSc1nc2c(c(=O)[nH]1)CCC2)c1ccccc1,inactive: 1.02
21,CCCCCCCCCCCCCCCCn1cc[n+](C)c1,inconclusive: -3.33 and inconclusive: -5.47
22,CCOC(=O)Cn1c(=O)oc2cc(S(=O)(=O)NC(C)c3ccccc3)ccc21 (centres undefined),inconclusive: 0.19
23,CCN(CC)S(=O)(=O)c1cccc(C(=O)N[C@H](C(=O)O)C(C)C)c1,inconclusive: -2.95

# Single values from the entries so far.
# CCCN(CCC)S(=O)(=O)c1ccc(C(=O)OCCN2C(=O)c3cccc4c(N5CCOCC5)ccc(c34)C2=O)cc1 – z-score: active: 6.18
# CCOC(=O)c1sc2nc(C)c3c(c2c1N)CC(C)(C)OC3 – z-score: inconclusive: -0.27

# Later entries.

row,SMILES,z-score
1,CCOC(=O)c1[nH]c2c(c1-c1ccc(OC)cc1)C(=O)CC(c1ccc(OC)c(OC)c1)C2 (centres undefined),inconclusive: -3.68
2,O=S(=O)(Cc1ccc(Cl)cc1)c1ccccc1-c1nnc(-c2ccccc2)o1,active: 13.8
3,Cc1nc2ccccc2c2oc(C(=O)Nc3ccc4c(c3)OCCO4)cc12,inconclusive: -0.47
4,c1ccc(-c2csc(-n3cnnn3)n2)cc1,active: 3.13
5,CCN(CC)c1ccc(/C=N/N(c2ccccc2)c2ccccc2)c(O)c1,inconclusive: -3.26
6,COC(=O)c1sc2ccccc2c1-n1cccc1C(=O)C(=O)Nc1ccc(F)cc1,active: 5.4
7,O=S(=O)([N-]c1nc2ccccc2nc1-n1cc[n+](Cc2ccccc2)c1)c1ccc(Cl)cc1,inactive: -0.81
8,Cc1ccc(NC2=C/C(=N\S(=O)(=O)c3cccs3)c3ccccc3C2=O)c(C)c1,inconclusive: -1.96
9,O=C(O)c1cnc(-c2ccccc2)nc1C(F)(F)F,inactive: -0.38
10,CCOc1ccc(-c2c[n+]3c(n2-c2ccccc2)CCCCC3)cc1,inconclusive: -3.55
11,CCOC(=O)C1(CCOc2ccccc2)CCN(Cc2cccc3c2OCO3)CC1,inactive: -0.14
12,Cc1ccc(S(=O)(=O)Nc2ccc3ncccc3c2)cc1,inconclusive: -2.94
13,Cc1ccc(SCc2cc(-c3ccc(Cl)cc3)no2)cc1,active: 3.09
14,N=c1c2c(n(Cc3ccccc3)c3c1CCC3)CCC2,inconclusive: -5.35
15,OCCC1CN(C2CCN(c3ccccc3F)CC2)CCN1Cc1ccccc1 (centres undefined),inactive: -0.65
16,COc1cc(CNCc2ccco2)ccc1OCc1ccccc1,inconclusive: -1.7
17,COc1ccc2nc(SCC(=O)Nc3c(C)cccc3C)[nH]c2c1,active: 3.26
18,COc1ccc(OC)c(C2C=C(c3ccc(C)c(C)c3)Nc3nnnn32)c1 (centres undefined),inactive: 0.05
19,O=[N+]([O-])c1ccc(-c2nc(C(Cl)Cl)c3ccccc3n2)cc1,inconclusive: -4.63
20,COc1cc(C(C)=O)ccc1OCC(O)CN1CCN(S(=O)(=O)c2ccccc2)CC1 (centres undefined),inactive: -0.54
21,O=C(Nc1ccc(S(=O)(=O)N2CCOCC2)cc1)c1ccc(CN2CCc3ccccc3C2)cc1,inconclusive: -6.12
22,CC[n+]1c(/C=C2\Sc3ccccc3N2C)ccc2cccc(C)c21,inconclusive: 17.1
23,Cc1cc(C)c2nc3sc(C(=O)N4CCOCC4)c(N)c3cc2c1,inconclusive: -0.53

# Structures shown so far containing a cyano group (2):
row,SMILES,z-score
5,Cc1ccc(S(=O)(=O)C(C#N)c2nc3ccccc3nc2N2CCC(C)CC2)cc1 (centres undefined),active: 3.75
14,CCc1ccc(C2C(C#N)=C(N)C(C#N)(C#N)C3=CCC(C(C)(C)C)CC32)cc1 (centres undefined),inconclusive: -0.91

# Next part

row,SMILES,z-score
1,OCCCNc1cc(-c2ccnc(Nc3cccc(Cl)c3)n2)ccn1,inconclusive: -0.96
2,Cc1ccc2[nH]c3c(N4CCN(Cc5ccc6c(c5)OCO6)CC4)ncnc3c2c1,inconclusive: -1.68
3,O=C(/C=C/c1c(F)cccc1Cl)Nc1ccncc1,inconclusive: -5.72
4,Cc1ccc(/C(=N\O)c2oc3c(C)c4oc(=O)cc(C)c4cc3c2C)cc1,inconclusive: -2.1
5,COc1ccc(/C=N/NC(=O)c2ccc(Cn3cc([N+](=O)[O-])cn3)o2)c(OC)c1C,inactive: 0.11
6,Nc1ncnc2nc(SCCOc3ccc(Cl)cc3)[nH]c12,inconclusive: -9.23
7,CCn1c(SCC(=O)OC(C)C)nnc1-c1cccc(Cl)c1,inconclusive: -0.41
8,CCCCN(C)CC(O)Cn1cc(/C=C/C(=O)c2cccs2)c2ccccc21 (centres undefined),active: 4.79
9,Cc1onc(-c2ccccc2)c1C(=O)NC(=S)NNC(=O)c1ccc(O)cc1,inconclusive: -0.92
10,Cc1ccc(C(=O)C2CCOC(C)(C)C2)cc1 (centres undefined),inactive: 0.37
11,O=C(NCc1cn2ccccc2n1)c1ccco1,active: 3.67
12,NS(=O)(=O)c1cccc2cccnc12,active: 5.52
13,CCCCOCCCNc1ncnc2c1[nH]c1ccccc12,inconclusive: -6.88
14,O=c1c(Cl)c(Cl)cnn1Cc1nnc(-c2ccccc2Br)o1,inconclusive: -3.95
15,COC(=O)/C=C1\OC(c2ccccc2)=CC1=O,inactive: -0.11
16,CCC(CO)[n+]1c(C)cc(/C=C2\Sc3ccccc3N2Cc2ccccc2)cc1C (centres undefined),inconclusive: 14.9
17,O=C(Nc1ccc2c(c1)CCC2)C1CCN(c2c3c(nc4ncnn24)CCC3)CC1,inconclusive: -1.52
18,CCOC(=O)c1ccc(NC(=O)C(C)NS(=O)(=O)c2ccc(OC)cc2)cc1 (centres undefined),inactive: 0.65
19,CCOC(=O)CNC(=O)/C=C/c1c(Cl)cccc1Cl,inconclusive: -5.99
20,CCCCCCCCn1c2c(c(=N)c3c1CCC3)CCCC2,inconclusive: -1.02
